Laboratory results: PubChem BioAssay AID652272 (Drosophila RNAi Screening Center, 2013)

Aim: 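Genes whose knock-down decreases or increases Hedgehog reporter output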 (primary screen)
System: Drosophila clone 8 (Cl8) cells
Reagent: long dsRNA against Drosophila genes
Read-out: 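Firefly light from a Hedgehog-responsive ptc promoter reporter and Renilla reference light, both read on a plate reader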
Direction: firefly Hh reporter signal: higher = more ptc reporter light; Renilla reference signal: higher = more Renilla control light
Call rule: 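Hit when the z-score averaged over two replicates is under -2 or over +3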
Calls: active = hit: reporter lowered or raised; inactive = not a hit
The deposit covers about 21,000 reagents; below is a random part of those that have a named target and a result. Of all reagents, 503 (2.4%) got an active call. 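Raw plate light values, not normalised; calls rest on replicate z-scores that were not deposited; hits include reporter decreases as well as increases.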 A plus sign joins genes that one reagent is predicted to hit. Reagent sequences are not shown. The record does not give: the amount of reagent, the time to read-out.

Gene | DRSC id | firefly Hh reporter signal, replicate 1 | firefly Hh reporter signal, replicate 2 | firefly Hh reporter signal, replicate 3 | Renilla reference signal, replicate 1 | Renilla reference signal, replicate 2 | activity call
CG15712 | DRSC06583 | 1.18e5 | 64444 | – | 3066 | 5043 | inactive
CG13193 | DRSC06318 | 1.11e5 | 96752 | – | 3177 | 6183 | inactive
CG31097 | DRSC14666 | 5.58e5 | 1.61e5 | – | 28627 | 4320 | inactive
CG11226 | DRSC11639 | 84509 | 1.16e5 | – | 3259 | 2816 | inactive
prd (paired) | DRSC03597 | 96537 | 60129 | – | 4199 | 3431 | inactive
Adi1 (Acireductone dioxygenase 1) | DRSC10945 | 79178 | 67461 | 93798 | 5206 | 7137 | inactive
Daao2 (D-amino acid oxidase 2) | DRSC02135 | 94582 | 1.18e5 | – | 3877 | 4890 | inactive
Rab3-GEF (Rab3 GDP-GTP exchange factor) | DRSC19954 | 84848 | 2.47e5 | – | 3338 | 9507 | inactive
Rab3-GEF (Rab3 GDP-GTP exchange factor) | DRSC19955 | 80524 | 2.32e5 | – | 3116 | 9808 | inactive
Rab3-GEF (Rab3 GDP-GTP exchange factor) | DRSC19956 | 49360 | 1.15e5 | – | 2016 | 4621 | inactive

Next part, starting with the last 2 of the part before.
Gene | DRSC id | firefly Hh reporter signal, replicate 1 | firefly Hh reporter signal, replicate 2 | firefly Hh reporter signal, replicate 3 | Renilla reference signal, replicate 1 | Renilla reference signal, replicate 2 | activity call
Rab3-GEF (Rab3 GDP-GTP exchange factor) | DRSC19955 | 80524 | 2.32e5 | – | 3116 | 9808 | inactive
Rab3-GEF (Rab3 GDP-GTP exchange factor) | DRSC19956 | 49360 | 1.15e5 | – | 2016 | 4621 | inactive
snRNA:U1:95Cc + snRNA:U1:95Cb | DRSC13641 | 54326 | 1.75e5 | – | 12621 | 4400 | inactive
CG10859 | DRSC02110 | 53240 | 39980 | – | 2012 | 1322 | inactive
ncd (non-claret disjunctional) | DRSC17012 | 66449 | 51760 | – | 1707 | 1671 | inactive
DMAP1 (DNA methyltransferase 1 associated protein 1) | DRSC06044 | 83496 | 74141 | – | 3798 | 3115 | inactive
Oatp58Da (Organic anion transporting polypeptide 58Da) | DRSC04365 | 1.49e5 | 65882 | – | 3593 | 3290 | inactive
snk (snake) | DRSC17060 | 94192 | 70480 | – | 2884 | 2087 | inactive
sesB (stress-sensitive B) | DRSC20371 | 84324 | 2.07e5 | – | 2139 | 6961 | inactive
hbt + CG43779 | DRSC02503 | 73376 | 50697 | – | 1724 | 4162 | inactive
CG32694 | DRSC17844 | 83857 | 1.45e5 | – | 2900 | 4890 | inactive
CG32694 | DRSC17855 | 78312 | 2.13e5 | – | 1146 | 9597 | inactive
Obp19a (Odorant-binding protein 19a) | DRSC20487 | 79400 | 2.05e5 | – | 2128 | 10554 | inactive
mr (morula) | DRSC04332 | 1.89e5 | 1.50e5 | – | 7324 | 6084 | inactive
Nufip | DRSC10397 | 1.06e5 | 41440 | – | 3433 | 1674 | inactive
